Publication PMC10681007, “Targeted Degradation of XIAP is Sufficient and Specific to Induce Apoptosis in MYCN-overexpressing High-risk Neuroblastoma” (Cancer Research Communications, 2023)
Some entries of the source have several records that differ or are many. This is not the full list of results. There may be further records. The values listed for one entry appear to be repeats (runs, samples, wells or individuals); one of them may be the mean.

Sequences of proteins named here, by UniProt entry; tags and fusion partners are left off.
UniProt P98170, whole entry: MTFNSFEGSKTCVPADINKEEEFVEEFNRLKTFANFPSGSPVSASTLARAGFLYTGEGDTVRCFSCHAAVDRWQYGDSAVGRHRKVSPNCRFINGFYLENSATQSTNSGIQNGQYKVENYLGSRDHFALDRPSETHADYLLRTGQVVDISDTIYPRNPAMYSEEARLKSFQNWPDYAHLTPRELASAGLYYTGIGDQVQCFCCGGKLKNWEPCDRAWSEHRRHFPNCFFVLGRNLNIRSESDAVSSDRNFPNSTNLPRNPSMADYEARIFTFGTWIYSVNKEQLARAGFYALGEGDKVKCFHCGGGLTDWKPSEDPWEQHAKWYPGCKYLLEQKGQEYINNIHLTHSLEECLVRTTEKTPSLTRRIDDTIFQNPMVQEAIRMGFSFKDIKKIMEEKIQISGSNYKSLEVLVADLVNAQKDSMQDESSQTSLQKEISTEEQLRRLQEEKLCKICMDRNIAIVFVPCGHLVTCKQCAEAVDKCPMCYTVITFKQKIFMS

Molecular target: XIAP (Homo sapiens, UniProt P98170)
Test: XIAP expression in tumors harvested from A4-treated PDXs (immunoblot densitometry)
Details: tumor
Description: FIGURE 4 Treatment with XIAP-specific antagonist A4 prolongs and improves overall survival in high-risk neuroblastoma PDXs. A, Top, Immunoblot analysis of XIAP, cleaved PARP and cleaved caspase-3 expression in tumors harvested from treated neuroblastoma PDXs. Neuroblastoma PDXs were treated with 10 mg/kg A4 via intraperitoneal injection. Tumors were harvested over the following time courses of 0, 0.5, 1, 2, 4, 24, and 48 hours after dosing. β-actin is used as internal control. Bottom, Graphical representation of densitometry ratio for XIAP expression normalized to β-actin in tumors harvested from neuroblastoma PDXs as described in A (Supplementary Data S2). Values were expressed as mean ± SD with n = 3/timepoint. B, Kaplan–Meier survival plot of MYCN-amplified neuroblastoma PDXs (n = 9/treatment group). […] The mice were monitored over a period of 7 weeks, including 4 weeks of stabilizing implantation and subsequent 3 weeks of treatment period. log-rank (Mantel–Cox test) derived from Kaplan–Meier survival plot was used for statistical comparisons between groups with *, P < 0.05. […]
Whole cell lysates harvested were lysed in EBC buffer (pH 8.0 of 50 mM Tris, 0.5% NP-40, 120 mM sodium chloride) containing protease inhibitors and protein concentration were quantified using the Bradford assay (Thermo Fisher Scientific). […]

COC(=O)c1[nH]c2ccc(Cl)cc2c1NC(=O)CN1CCN(Cc2ccccc2)CC1
XIAP/B-actin relative to 0 h, single sets M1, M2, M3 (2 h after 10 mg/kg i.p.): 0.7418, 1.818, 0.8734
XIAP/B-actin relative to 0 h, single sets M1, M2, M3 (4 h after 10 mg/kg i.p.): 0.1947, 1.073, 0.6027
